Results published in PubChem BioAssay AID493014 (National Center for Advancing Translational Sciences (NCATS), 2011).
This is one part of the list. Shown are side measurements of this screen, not its main read-out; they come without a call. The list favours compounds with an active or inconclusive main result. Words in brackets tell the shape of the fitted curve; partial curves, single points and poor fits give uncertain potencies.

Experiment: qHTS Assay to Find Inhibitors of Chronic Active B-Cell Receptor Signaling
Settings: ABC-DLBCL IkBa-CBG/CBR reporter, luminescence ratio (green luciferase fused to IkBa over red control in TMD8 lymphoma cells), 4 h
How it was run: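 Doxycycline induced both beetle luciferases in TMD8 lymphoma cells; IKK-driven degradation limits the IkappaBalpha-fused green signal, while red luminescence normalises for cell number and nonspecific effects. Compounds tested up to 46 uM, 4 hrs.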

[1] = measured here: CBR red luminescence, cell number
[2] = measured here: IkBa-CBG green luminescence

SMILES | AC50 [1] | AC50 [2]
CC(/C=C1\SC(=S)N(c2ccc(C(=O)O)cc2)C1=O)=C\c1ccccc1 | 14.1 µM [falling, partial curve, poor fit] | –
Cc1ccc(C)c(N=Nc2nc3ccccc3n2C)c1 | 11.2 µM [falling, single point] | –
C=CCn1c(SCC(=O)O)nnc1-c1cccs1 | 0.092 µM [falling, full curve, poor fit] | –
COc1ccccc1NC(=O)COc1ccc(Br)cc1CO | 4.11 µM [falling, single point] | –
CCCCn1nc(C(=O)Nc2ccc3c(c2)OCCO3)c2ccccc2c1=O | 11.6 µM [falling, partial curve] | –
NCCNC(=O)c1c(NC(=O)c2ccccc2)sc2c1CCCC2 | 2.51 µM [falling, full curve, poor fit] | –
O=C(N/N=C/c1cccc(F)c1)c1ccc(Cl)cc1 | 11.2 µM [falling, partial curve, poor fit] | –
O=C(NCc1ccco1)NC1CCCCC1 | 25.9 µM [rising, single point] | –
Cc1nn(-c2ccccc2)c(Cl)c1/C=N/Nc1nnc(C)c(=O)[nH]1 | 3.55 µM [rising, single point] | –
Fc1ccccc1OCCCCSc1ncccn1 | 0.398 µM [rising, full curve, poor fit] | –
O=C1CCCC2=C1C(c1cccs1)n1ncnc1N2 (centres undefined) | 9.2 µM [rising, partial curve, poor fit] | –
CCOC(=O)c1cnc2ccccc2c1Nc1ccc2c(c1)OCCO2 | 23.1 µM [falling, partial curve, poor fit] | –
CN(C)C(=S)Nc1ccc2c(c1)OCCO2 | 0.562 µM [rising, full curve, poor fit] | –
OCCNCCOCCOc1ccccc1-c1ccccc1 | 16.4 µM [falling, partial curve] | –
O=C(Nc1cccc(NC(=O)c2cccnc2Cl)c1)c1ccco1 | 5.8 µM [falling, full curve] | –
COC(=O)c1cccc(CSc2nnc(C)s2)c1 | 10 µM [rising, partial curve, poor fit] | –
COc1ccccc1C(=O)Nc1ccc(OCC(=O)N2CC(C)OC(C)C2)cc1 (centres undefined) | – | 16.4 µM [rising, partial curve, poor fit]
C=CCn1c(O)c(N=NC(=S)Nc2ccccc2F)c2ccccc21 | 3.55 µM [rising, partial curve] | 4.47 µM [falling, single point]
CC(C)(C)OC(=O)NCCCC[C@H](NC(=O)c1nc[nH]c1C(=O)NC1CCN(C(=O)OC(C)(C)C)CC1)C(=O)OC(C)(C)C | 35.5 µM [falling, partial curve, poor fit] | –
COc1ccc(C(=O)OCC(=O)Nc2cc(C)on2)c(OC)c1OC | 14.1 µM [rising, partial curve, poor fit] | –
O=C(Nc1cccc(F)c1)c1ccc2c(c1)OCO2 | 5.17 µM [falling, single point] | 2.91 µM [rising, partial curve, poor fit]

SMILES | AC50 [1] | AC50 [2]
Cc1cc(NC(=O)c2ccc(S(=O)(=O)N3CCc4ccccc43)cc2)no1 | 6.31 µM [falling, full curve] | –
O=C(NCCN1CCCCC1)Nc1ccc(Br)cc1 | 12.6 µM [rising, partial curve, poor fit] | –
Cc1nc(N2CCN(C)CC2)c2sc(=S)n(C)c2n1 | 2.91 µM [falling, single point] | –
C#CCOCCOCCOCCNc1nc(N2CCN(C(=O)CCCCCCCCCCNC(=O)Cn3cc(C[C@@H](C)O)nn3)CC2)nc(N2CCN(C(=O)CCCCCCCCCCNC(=O)[C@H](CCCCN)n3cc(CCCC(=O)O)nn3)CC2)n1 | 14.6 µM [rising, partial curve] | –
Cn1c(=NC(=O)CCS(=O)(=O)c2ccccc2)sc2cc(F)ccc21 | 3.66 µM [rising, full curve, poor fit] | –
COc1cccc(C(=O)NNC2OC(CO)C(O)C2O)c1 (centres undefined) | 1.41 µM [falling, full curve] | –
Cc1cccc(-c2n[nH]c([N+](=O)[O-])n2)c1 | 6.31 µM [falling, partial curve] | –
COC(=O)Cn1cc(C(=O)C2CC2)c2ccccc21 | 0.146 µM [rising, full curve, poor fit] | –
CC(C)C(=O)Nc1ccc(C(=O)CN2C(=O)NC3(CCOc4ccccc43)C2=O)cc1 (centres undefined) | 0.206 µM [rising, full curve, poor fit] | –
O=C(CCCCCN1C(=O)CCC1=O)Nc1ccc2c(c1)OCCO2 | 1.64 µM [rising, partial curve, poor fit] | –
Cn1c(=O)[nH]c(=O)c2c1nc(N1CCCCCC1)n2CC(N)=O | 9.2 µM [rising, partial curve, poor fit] | –
COc1cc(-c2nc(-c3ccccc3)c(-c3cccs3)[nH]2)cc(OC)c1O | 29.1 µM [falling, single point] | –
CC1CCC(N2CC(=O)N(C3CCCC3)C(c3ccc(Cl)cc3)C2=O)CC1 (centres undefined) | 35.5 µM [rising, single point] | –
CC(=O)Nc1cccc(/C(C)=N/NC(=O)c2cc(-c3ccncc3)nc3ccccc23)c1 | 5.62 µM [rising, full curve, poor fit] | –
Nc1nc(-c2ccccc2)c(N=Nc2cccnc2)s1 | 0.708 µM [falling, full curve] | –
COc1cccc(/C=C/c2n[nH]c(=O)c(C#N)c2C)c1 | 17.8 µM [falling, partial curve, poor fit] | –
COc1ccccc1C1C2=C(N=c3s/c(=C/c4cccc(OCC(=O)O)c4)c(=O)n31)c1ccccc1CC2 (centres undefined) | 25.9 µM [falling, single point] | –
O=C1CS/C(=C\[N+](=O)[O-])N1c1ccc(OC(F)(F)F)cc1 | 17.8 µM [falling, partial curve, poor fit] | –
Cc1cnc(NC(=O)Nc2ccc(OCc3ccccc3)cc2)c(Br)c1 | 17.8 µM [falling, partial curve, poor fit] | –
COc1ccc(CNC(=O)CCCNS(=O)(=O)c2cccc3nonc23)cc1 | 18.4 µM [rising, partial curve, poor fit] | –
Cc1ccc(C(=O)Nc2cccc(C(=O)N3CCN(C)CC3)c2)cc1 | 2.82 µM [falling, partial curve, poor fit] | –

Gathered by group, those above with a thiophene ring, fused or not (four)
SMILES | AC50 [1] | AC50 [2]
C=CCn1c(SCC(=O)O)nnc1-c1cccs1 | 0.092 µM [falling, full curve, poor fit] | –
NCCNC(=O)c1c(NC(=O)c2ccccc2)sc2c1CCCC2 | 2.51 µM [falling, full curve, poor fit] | –
O=C1CCCC2=C1C(c1cccs1)n1ncnc1N2 (centres undefined) | 9.2 µM [rising, partial curve, poor fit] | –
COc1cc(-c2nc(-c3ccccc3)c(-c3cccs3)[nH]2)cc(OC)c1O | 29.1 µM [falling, single point] | –

Additional compounds.

SMILES | AC50 [1] | AC50 [2]
CN(C)c1ccc(/C=N/NC(=O)c2ccc3c(c2)OCCO3)cc1 | 4.47 µM [falling, full curve] | –
Cc1ccc(S(=O)(=O)N(CC(O)CN2C(=O)NC(C)(C)C2=O)c2cccc([N+](=O)[O-])c2)cc1 (centres undefined) | 35.5 µM [falling, single point] | –
COC(C[C@H]1O[C@H]1[C@H](O)[C@@H](C)OCc1ccccc1)OC | 6.31 µM [rising, full curve, poor fit] | –
CCOC(=O)c1c(NC(=O)CCN2C(=O)c3ccccc3C2=O)sc(C(=O)OC(C)C)c1C | 3.55 µM [falling, single point] | –
O=C(Cc1cc(=O)[nH][nH]1)N/N=C/C=C/c1ccccc1 | 3.16 µM [rising, single point] | –
O=C(c1ccc([N+](=O)[O-])s1)N1CCCc2ccccc21 | 3.55 µM [rising, partial curve, poor fit] | –
COc1cc(C2C(C(=O)c3ccc(C)o3)=C(O)C(=O)N2c2cc(C)on2)ccc1OCc1ccccc1 (centres undefined) | 11.2 µM [rising, partial curve, poor fit] | –
O=C(C1CCCN(S(=O)(=O)c2ccccc2)C1)N1CCCc2ccccc21 (centres undefined) | 11.6 µM [falling, partial curve, poor fit] | –
Cc1ccc(-n2c(SCC(=O)N3CC(=O)Nc4ccccc43)nc3ccccc3c2=O)cc1C | 6.51 µM [falling, partial curve, poor fit] | –
O=C(CBr)c1ccc([N+](=O)[O-])c(CS(=O)(=O)c2ccc(Cl)cc2)c1 | 35.5 µM [falling, single point] | 35.5 µM [rising, partial curve, poor fit]
O=C(c1ccco1)N1CCN(C2CC(=O)N(c3ccccc3)C2=O)CC1 (centres undefined) | 18.4 µM [rising, partial curve] | –
CCC(N=c1cc(-c2ccc(OC)cc2)oc2ccc(C)cc12)C(=O)O (centres undefined) | 0.116 µM [rising, full curve, poor fit] | –
CN(C(=O)c1ccc2c(c1)N(Cc1ccccc1F)C(=O)c1ccccc1S2)C1CCCCC1 | 8.91 µM [falling, single point] | –
CCOC(=O)c1c(C)oc2c1c(CN1CCN(C(=O)OCC)CC1)c(O)c1ccccc12 | 29.1 µM [falling, single point] | –
O=C(N/N=C/c1cn[nH]c1-c1ccccc1)c1ccco1 | 15.8 µM [falling, single point] | –
O=C(Nc1ccc(S(=O)(=O)N2CCCCCC2)cc1)c1[nH]ncc1[N+](=O)[O-] | 7.08 µM [rising, partial curve, poor fit] | –
Cc1[nH]c2ccccc2c1Cc1n[nH]c(=S)n1C | 18.4 µM [rising, partial curve, poor fit] | –
CC(C)CCc1noc(CN2CCN(c3ccc(Cl)cn3)CC2)n1 | 0.708 µM [rising, full curve, poor fit] | –
COc1ccc2oc(C(=O)Nc3nc(-c4ccccn4)cs3)c(C)c2c1 | 29.1 µM [rising, single point] | –
